Activity calls are given as the source filed them. The rule behind the calls is not given here.
Assay: Cytotoxicity activity against human HepG2 cells assessed by CellTiter-Glo luminescent cell viability assay.
Type: toxicity, cell-based
Design: assay stage confirmatory assay, source tissue liver
Conditions: read-out: IC50 relative

SMILES: Cc1ccc(C(=O)NCCCCCC(=O)Nc2ccccc2N)cc1
- CC50: active: 11.3 µM

Reference: ChEMBL document CHEMBL5303711, “ECBD screening data for assay EOS300108” (2023)
